Results on 41 compounds are retold here after PubChem BioAssay AID493014 (National Center for Advancing Translational Sciences (NCATS), 2011).

A short description of the assay: qHTS Assay to Find Inhibitors of Chronic Active B-Cell Receptor Signaling. The settings on record: ABC-DLBCL IkBa-CBG/CBR reporter, luminescence ratio (green luciferase fused to IkBa over red control in TMD8 lymphoma cells), 4 h. In short, it runs like this: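 TMD8 ABC-DLBCL cells carrying doxycycline-inducible green luciferase fused to IkappaBalpha plus unfused red luciferase were exposed to compounds (up to 46 uM) for 4 hrs at 37C. Activity came from the overlap-corrected green/red luminescence ratio.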
(In general: In qHTS, concentration-response curves come from the screen itself.)

Where [1] appears, read: measured here: CBR red luminescence, cell number.
Where [2] appears, read: measured here: IkBa-CBG green luminescence.

This is one part of the list. The main result of the screen is listed elsewhere. These columns were measured beside it and carry no call. Compounds called inactive in the main read-out are mostly missing here. Words in brackets tell the shape of the fitted curve; partial curves, single points and poor fits give uncertain potencies.

Consider `O=C(CCc1c[nH]c2ccccc12)NCCc1ccccc1`, for which the AC50 (usually the concentration giving half of the maximal activity seen) under setting [1] was 0.562 µM [rising, full curve, poor fit]. `CCSc1nnc(NC(=O)c2cccnc2)s1`: the AC50 under setting [1] was 14.6 µM [falling, partial curve].

For `O=C(Nc1cccc2cccnc12)C1CCCC1`, the AC50 under setting [1] was 3.26 µM [rising, full curve, poor fit]. Take `O=C(NCCCN1CCOCC1)c1cc(-c2ccc(F)cc2)on1`: under setting [1], the AC50 is 0.794 µM [falling, full curve, poor fit]. Same read-out and setting: under `O=C(N/N=C/c1cccs1)c1cccc2cc[nH]c12` stands 5.01 µM [falling, partial curve]; under `O=C(N/N=C/c1ccc(-c2ccccc2Cl)o1)c1ccccc1`, 35.5 µM [falling, single point]; under `COc1ccc(C(=O)NC(=S)Nc2ccc(N3CCOCC3)c(Cl)c2)cc1[N+](=O)[O-]`, 7.31 µM [rising, partial curve]. `CCC(=O)Nc1ccc(Cl)c(NC(=S)NC(=O)COc2ccccc2)c1`: under setting [1], the half-maximal activity concentration (AC50) was 10.3 µM [rising, partial curve, poor fit]. Turning to `c1ccc2[nH]c(NN=C3CCCCCC3)nc2c1`, the AC50 under setting [1] is 35.5 µM [falling, single point].

Take `O=C1NN(c2ccccc2)C(=O)/C1=C\c1ccc(-c2cc([N+](=O)[O-])ccc2O)o1`: the half-maximal activity concentration (AC50) under setting [1] was 12.6 µM [falling, partial curve, poor fit].

For the compound `O=S(=O)(c1cccs1)N1CCN(CC(O)COc2cccc(Br)c2)CC1` (centres undefined), under setting [1], the AC50 is 0.651 µM [rising, partial curve, poor fit]. The same measure, in the same setting: with `COc1ccc(OC)c(C2NC(=O)NC(C)=C2C(=O)OC2CCCCC2)c1` (centres undefined) the figure was 6.31 µM [rising, partial curve, poor fit]; with `COc1cccc(C(=O)OC2CCCN(C)C2)c1` (centres undefined), 29.1 µM [falling, single point]. On to `Cc1cc(C)nc(SCc2nnc(SCC(=O)N3CCOCC3)o2)n1`, for which, under setting [1], the AC50 is 35.5 µM [rising, single point]. On to `COc1ccccc1C(=O)N/N=C(\C)CC(=O)Nc1ccccc1NC(C)=O`, for which the AC50 under setting [1] is 0.794 µM [falling, full curve, poor fit]. On the same count and under the same terms, under `Cc1c(CN(C)Cc2cn(C)nc2-c2ccccc2F)[nH]c2ccccc12` stands 12.6 µM [falling, single point]; under `Clc1ccc(SCc2cn3ccsc3n2)cc1`, 0.501 µM [rising, full curve, poor fit]; under `Cc1c(C(=O)OCc2ccccc2)nnn1-c1nonc1N`, 7.08 µM [rising, full curve, poor fit].

For the compound `Cc1ccc(-c2ccc(C(=O)NCc3ccc(Cl)cc3)o2)c2ccccc12`, under setting [1], the half-maximal activity concentration (AC50) was 2.31 µM [falling, partial curve].

Take `CCOC(=O)N1CCN(Cc2nc(N)nc(Nc3ccc(Oc4ccccc4)cc3)n2)CC1`: the concentration at half-maximal activity (AC50) is 14.6 µM [falling, partial curve, poor fit] under setting [1] and 29.1 µM [falling, single point] under setting [2]. `N#Cc1ccc(C(=O)NC23CC4CC(CC(C4)C2)C3)cc1`: under setting [1], the concentration at half-maximal activity (AC50) was 7.08 µM [rising, partial curve, poor fit]. With `CSc1ccc(C2C(C#N)=C(N)Oc3c2ccc(=O)c2c(C)oc(C)c32)cc1` (centres undefined), the half-maximal activity concentration (AC50) under setting [1] was 16.4 µM [rising, single point]. On the same count and under the same terms, under `Cc1nc(NC(=S)NC(=O)COc2ccccc2Cl)ccc1Br` stands 29.1 µM [rising, partial curve, poor fit]; under `O=C(NC(=S)Nc1ccc(Br)cn1)c1cccnc1`, 3.98 µM [rising, full curve, poor fit].

Regarding `O=C(NNC(=S)NCC1CCCO1)c1ccc(S(=O)(=O)N2CCOCC2)cc1` (centres undefined), under setting [1], the AC50 is 20 µM [rising, single point]. In the case of `CN(C)/C=C1/Nc2ccccc2C1=O`, the concentration at half-maximal activity (AC50) under setting [1] is 8.2 µM [falling, partial curve, poor fit]. For the compound `CCCc1cc(C(=O)NCC(C)C)no1`, the half-maximal activity concentration (AC50) under setting [1] was 25.1 µM [falling, single point].

In the case of `COc1ccc(/C=N/NC(=O)c2cc3c(OC)ccc(OC)c3[nH]2)cc1O`, the AC50 under setting [1] was 5.01 µM [rising, partial curve] and the AC50 under setting [2] is 2.24 µM [falling, full curve].

For the compound `CSc1ccc(C(=S)N2CCN(Cc3ccccc3)CC2)cc1`, the concentration at half-maximal activity (AC50) under setting [1] is 0.82 µM [falling, full curve, poor fit]. Same read-out and setting: with `CC1CCCCC12NC(=S)N(c1ccccc1)N2` (centres undefined) the figure was 4.47 µM [rising, single point]; with `Cc1cc([N+](=O)[O-])nn1Cc1ccc(C(=O)N/N=C/c2ccc(O)cc2O)cc1`, 23.1 µM [falling, partial curve]; with `COc1cccc(OC)c1OC(=O)/C=C/c1ccc(C)o1`, 15.8 µM [rising, partial curve]. Regarding `O=C(CCc1ccccc1)NNC(=O)c1ccccc1C(=O)O`, the AC50 under setting [1] was 29.1 µM [rising, single point].

Turning to `COc1ccc(C2C(C#N)=C(N)SC(N)=C2C#N)cc1OC`, the AC50 under setting [1] was 0.731 µM [falling, full curve, poor fit]. The same measure, in the same setting: under `COC1CCN(Cc2c(C(=O)N3CCc4ccccc4C3)nc3ccc(Cl)cn23)CC1` stands 3.98 µM [rising, partial curve, poor fit].

For the compound `CCc1nc(Nc2ccc(OC)c(OC)c2)c2nnn(Cc3ccccc3Cl)c2n1`, the AC50 under setting [1] was 7.31 µM [falling, partial curve, poor fit]. Take `CCNc1nc(NCC)nc(Oc2ccc(N)cc2)n1`: under setting [1], the AC50 was 29.1 µM [rising, single point]. Same read-out and setting: under `CCCC1=NN(C(=O)C(=O)Nc2ccc(Br)cc2)C(O)(C(F)(F)F)C1` (centres undefined) stands 10 µM [falling, partial curve, poor fit]. Turning to `Cc1ccc(C)c(CN2C(=O)c3ccccc3S(=O)c3ccc(C(=O)NCCCN4CCCC4)cc32)c1` (centres undefined), the half-maximal activity concentration (AC50) under setting [1] is 7.08 µM [falling, partial curve, poor fit]. Regarding `CC(C)N1C(=O)/C(=C/c2nc3ccccc3c(=O)n2-c2ccccc2)c2ccccc21`, the half-maximal activity concentration (AC50) runs as follows: under setting [1], 0.116 µM [falling, full curve, poor fit]; under setting [2], 9.2 µM [falling, partial curve]. Consider `Cc1ccc(C2=NN(C(=O)CCl)C(c3cccs3)C2)o1` (centres undefined), for which, under setting [1], the AC50 is 6.51 µM [falling, partial curve].
